# For at least one entry, the source does not settle the construct or the ends of the probe.
# Chains of the proteins cited; added tags and fusions are not shown. A line that says so, or that is headed by a name, gives the form on record, which may keep a tag or linker.
# UniProt P17676, other isoform, or with tags, fused parts or gaps: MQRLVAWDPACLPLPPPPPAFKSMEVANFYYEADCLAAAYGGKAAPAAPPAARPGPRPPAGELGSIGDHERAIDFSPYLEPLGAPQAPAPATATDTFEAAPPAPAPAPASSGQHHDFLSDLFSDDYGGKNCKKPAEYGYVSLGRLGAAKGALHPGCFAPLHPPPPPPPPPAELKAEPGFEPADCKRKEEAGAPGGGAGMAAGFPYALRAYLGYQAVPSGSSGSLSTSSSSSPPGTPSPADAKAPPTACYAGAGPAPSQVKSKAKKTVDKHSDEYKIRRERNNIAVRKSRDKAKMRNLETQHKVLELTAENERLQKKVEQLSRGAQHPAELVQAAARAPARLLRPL
# Target: C/EBP2 (NF-IL6), full length (Homo sapiens) (UniProt P17676)
# Test: activity in cells
# Details: CAT reporter activated only on cotransfection with CMV-NFIL6(+); protein in cells; protein details: CMV-NFIL6(+) expressed in Jurkat cells; only the site is given
sequence,measurement,value
AGATTGCACAATCTGATCAGATTGCACAATCTGATCGATTCGACAATCT (double strand) [IL-1RE 3 copies of 14 bp palindrome (IL-1RE-K9CAT reporter)],activity on this sequence,active
